According to US7314747:
These are yes or no findings as the source states them, for the method shown. Some entries that bind do so weakly or less than the wild type.

Chains of the proteins cited; added tags and fusions are not shown. Lines headed by an entry give the natural chain unless they say otherwise; changes in a name come on top. Residues count along the entry.
UniProt Q9Y618: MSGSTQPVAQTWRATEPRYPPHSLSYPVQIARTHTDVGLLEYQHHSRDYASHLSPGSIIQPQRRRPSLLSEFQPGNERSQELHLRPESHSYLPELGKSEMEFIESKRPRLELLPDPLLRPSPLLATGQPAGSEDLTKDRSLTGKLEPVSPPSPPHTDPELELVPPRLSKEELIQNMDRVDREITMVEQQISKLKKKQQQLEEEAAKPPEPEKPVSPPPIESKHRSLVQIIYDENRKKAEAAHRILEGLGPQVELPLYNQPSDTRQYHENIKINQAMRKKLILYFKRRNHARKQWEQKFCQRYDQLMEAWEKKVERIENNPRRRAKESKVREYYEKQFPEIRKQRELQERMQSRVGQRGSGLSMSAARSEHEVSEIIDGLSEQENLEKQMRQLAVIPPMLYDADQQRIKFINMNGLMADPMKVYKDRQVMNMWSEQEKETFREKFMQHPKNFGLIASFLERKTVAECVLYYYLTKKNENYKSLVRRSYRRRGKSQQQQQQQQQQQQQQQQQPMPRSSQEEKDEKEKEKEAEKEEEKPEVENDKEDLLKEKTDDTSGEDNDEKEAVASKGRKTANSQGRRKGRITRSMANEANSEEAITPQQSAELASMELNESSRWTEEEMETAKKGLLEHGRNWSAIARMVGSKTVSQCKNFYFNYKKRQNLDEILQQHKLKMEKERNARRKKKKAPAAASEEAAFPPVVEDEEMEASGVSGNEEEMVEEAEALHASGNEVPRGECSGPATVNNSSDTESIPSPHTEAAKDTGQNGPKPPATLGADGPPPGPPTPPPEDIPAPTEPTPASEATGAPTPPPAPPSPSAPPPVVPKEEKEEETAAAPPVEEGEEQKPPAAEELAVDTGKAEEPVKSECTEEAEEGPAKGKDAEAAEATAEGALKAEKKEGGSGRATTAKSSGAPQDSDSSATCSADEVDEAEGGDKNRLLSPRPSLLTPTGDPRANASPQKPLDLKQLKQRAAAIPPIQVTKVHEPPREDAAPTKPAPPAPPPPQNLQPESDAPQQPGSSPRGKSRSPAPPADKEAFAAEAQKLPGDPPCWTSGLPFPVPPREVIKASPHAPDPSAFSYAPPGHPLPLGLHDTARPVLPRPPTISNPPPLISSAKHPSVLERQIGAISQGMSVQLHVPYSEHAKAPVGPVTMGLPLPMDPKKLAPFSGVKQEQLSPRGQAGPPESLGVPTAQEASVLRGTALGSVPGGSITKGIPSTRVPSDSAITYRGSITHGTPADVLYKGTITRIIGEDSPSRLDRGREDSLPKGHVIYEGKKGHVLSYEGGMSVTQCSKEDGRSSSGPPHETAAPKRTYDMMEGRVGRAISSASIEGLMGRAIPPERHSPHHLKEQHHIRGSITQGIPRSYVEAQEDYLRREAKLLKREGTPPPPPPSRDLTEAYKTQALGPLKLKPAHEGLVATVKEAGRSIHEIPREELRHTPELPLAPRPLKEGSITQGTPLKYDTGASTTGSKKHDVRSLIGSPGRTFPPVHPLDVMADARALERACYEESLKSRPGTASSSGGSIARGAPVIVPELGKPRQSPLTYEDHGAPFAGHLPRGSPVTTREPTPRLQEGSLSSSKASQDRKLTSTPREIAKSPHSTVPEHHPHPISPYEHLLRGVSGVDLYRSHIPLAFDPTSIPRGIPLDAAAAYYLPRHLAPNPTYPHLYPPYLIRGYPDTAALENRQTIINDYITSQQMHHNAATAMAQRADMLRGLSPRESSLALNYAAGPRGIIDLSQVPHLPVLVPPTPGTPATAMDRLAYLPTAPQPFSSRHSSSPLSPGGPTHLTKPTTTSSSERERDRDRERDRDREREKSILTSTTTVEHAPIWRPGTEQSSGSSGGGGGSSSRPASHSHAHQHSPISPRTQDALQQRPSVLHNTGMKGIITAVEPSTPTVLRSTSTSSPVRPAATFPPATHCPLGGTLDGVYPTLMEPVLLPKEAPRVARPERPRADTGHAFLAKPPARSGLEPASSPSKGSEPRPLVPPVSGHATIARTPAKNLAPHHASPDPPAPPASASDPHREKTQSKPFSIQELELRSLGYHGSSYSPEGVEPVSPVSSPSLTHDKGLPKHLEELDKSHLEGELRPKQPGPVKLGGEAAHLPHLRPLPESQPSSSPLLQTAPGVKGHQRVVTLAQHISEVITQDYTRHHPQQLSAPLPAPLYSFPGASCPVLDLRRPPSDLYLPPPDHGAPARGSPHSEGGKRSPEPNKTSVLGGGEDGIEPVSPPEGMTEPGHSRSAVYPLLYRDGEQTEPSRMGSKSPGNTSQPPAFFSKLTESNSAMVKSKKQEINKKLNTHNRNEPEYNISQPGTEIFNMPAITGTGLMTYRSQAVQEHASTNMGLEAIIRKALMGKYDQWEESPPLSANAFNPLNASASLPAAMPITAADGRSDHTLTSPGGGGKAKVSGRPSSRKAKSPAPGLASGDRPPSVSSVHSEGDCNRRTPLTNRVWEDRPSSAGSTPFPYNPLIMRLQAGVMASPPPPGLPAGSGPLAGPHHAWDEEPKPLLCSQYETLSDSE
UniProt P19793: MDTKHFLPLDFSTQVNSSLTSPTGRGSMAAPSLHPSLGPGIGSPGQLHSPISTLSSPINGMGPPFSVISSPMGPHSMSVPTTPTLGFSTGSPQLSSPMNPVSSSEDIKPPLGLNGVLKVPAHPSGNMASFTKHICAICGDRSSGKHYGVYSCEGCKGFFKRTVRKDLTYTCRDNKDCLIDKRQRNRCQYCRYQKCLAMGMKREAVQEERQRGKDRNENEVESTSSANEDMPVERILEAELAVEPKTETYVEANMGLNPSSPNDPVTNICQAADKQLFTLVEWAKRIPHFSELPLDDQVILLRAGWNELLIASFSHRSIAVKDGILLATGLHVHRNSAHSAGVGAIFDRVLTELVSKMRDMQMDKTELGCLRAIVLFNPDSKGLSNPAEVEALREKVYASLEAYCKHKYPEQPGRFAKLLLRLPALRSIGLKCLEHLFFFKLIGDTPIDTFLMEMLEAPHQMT
GST fusion of hRXRα LBD (aa 228-462): residues 228-462 of P19793

Columns and labels:
[1] = target: GST-SMRT (GST fusion of the C-SMRT encoded by the yeast two hybrid clone) (human) (UniProt Q9Y618); assay: far-western: 35S-labelled receptor on blotted GST fusion
[2] = target: GST fusion of hRXRα LBD (aa 228-462) (human) (UniProt P19793); assay: far-western: 35S-labelled probe on blotted bacterial extract

binding [1] | binding [2] | Substance
binds | – | 35S-RXR (from UniProt P19793 1-462) (receptor)
– | binds | SMRT (first SMRT clone; silencing mediator for retinoic acid receptor and thyroid hormone receptor) (from UniProt Q9Y618 1031-2514)
